We go through two substances from paper PMC11847914.

Sequences of proteins named here, by UniProt entry; tags and fusion partners are left off.
UniProt O95931: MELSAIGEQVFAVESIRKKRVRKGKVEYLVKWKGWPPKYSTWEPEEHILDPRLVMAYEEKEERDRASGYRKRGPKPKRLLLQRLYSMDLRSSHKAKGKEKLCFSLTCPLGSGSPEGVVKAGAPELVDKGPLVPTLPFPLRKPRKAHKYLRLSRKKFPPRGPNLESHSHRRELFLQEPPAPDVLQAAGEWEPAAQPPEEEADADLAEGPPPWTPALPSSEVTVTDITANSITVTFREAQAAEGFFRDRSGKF
UniProt Q06587: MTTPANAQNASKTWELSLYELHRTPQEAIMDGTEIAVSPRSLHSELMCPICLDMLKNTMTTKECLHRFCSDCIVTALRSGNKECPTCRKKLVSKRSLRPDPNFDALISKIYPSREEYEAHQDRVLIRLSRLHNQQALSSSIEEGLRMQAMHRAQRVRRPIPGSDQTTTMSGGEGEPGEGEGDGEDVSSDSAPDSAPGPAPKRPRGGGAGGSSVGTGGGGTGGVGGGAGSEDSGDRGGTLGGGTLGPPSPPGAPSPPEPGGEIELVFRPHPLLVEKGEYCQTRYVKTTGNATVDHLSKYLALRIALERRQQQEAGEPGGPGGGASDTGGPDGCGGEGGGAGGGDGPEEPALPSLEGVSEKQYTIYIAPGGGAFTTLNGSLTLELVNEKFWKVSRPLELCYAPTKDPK
UniProt P35579: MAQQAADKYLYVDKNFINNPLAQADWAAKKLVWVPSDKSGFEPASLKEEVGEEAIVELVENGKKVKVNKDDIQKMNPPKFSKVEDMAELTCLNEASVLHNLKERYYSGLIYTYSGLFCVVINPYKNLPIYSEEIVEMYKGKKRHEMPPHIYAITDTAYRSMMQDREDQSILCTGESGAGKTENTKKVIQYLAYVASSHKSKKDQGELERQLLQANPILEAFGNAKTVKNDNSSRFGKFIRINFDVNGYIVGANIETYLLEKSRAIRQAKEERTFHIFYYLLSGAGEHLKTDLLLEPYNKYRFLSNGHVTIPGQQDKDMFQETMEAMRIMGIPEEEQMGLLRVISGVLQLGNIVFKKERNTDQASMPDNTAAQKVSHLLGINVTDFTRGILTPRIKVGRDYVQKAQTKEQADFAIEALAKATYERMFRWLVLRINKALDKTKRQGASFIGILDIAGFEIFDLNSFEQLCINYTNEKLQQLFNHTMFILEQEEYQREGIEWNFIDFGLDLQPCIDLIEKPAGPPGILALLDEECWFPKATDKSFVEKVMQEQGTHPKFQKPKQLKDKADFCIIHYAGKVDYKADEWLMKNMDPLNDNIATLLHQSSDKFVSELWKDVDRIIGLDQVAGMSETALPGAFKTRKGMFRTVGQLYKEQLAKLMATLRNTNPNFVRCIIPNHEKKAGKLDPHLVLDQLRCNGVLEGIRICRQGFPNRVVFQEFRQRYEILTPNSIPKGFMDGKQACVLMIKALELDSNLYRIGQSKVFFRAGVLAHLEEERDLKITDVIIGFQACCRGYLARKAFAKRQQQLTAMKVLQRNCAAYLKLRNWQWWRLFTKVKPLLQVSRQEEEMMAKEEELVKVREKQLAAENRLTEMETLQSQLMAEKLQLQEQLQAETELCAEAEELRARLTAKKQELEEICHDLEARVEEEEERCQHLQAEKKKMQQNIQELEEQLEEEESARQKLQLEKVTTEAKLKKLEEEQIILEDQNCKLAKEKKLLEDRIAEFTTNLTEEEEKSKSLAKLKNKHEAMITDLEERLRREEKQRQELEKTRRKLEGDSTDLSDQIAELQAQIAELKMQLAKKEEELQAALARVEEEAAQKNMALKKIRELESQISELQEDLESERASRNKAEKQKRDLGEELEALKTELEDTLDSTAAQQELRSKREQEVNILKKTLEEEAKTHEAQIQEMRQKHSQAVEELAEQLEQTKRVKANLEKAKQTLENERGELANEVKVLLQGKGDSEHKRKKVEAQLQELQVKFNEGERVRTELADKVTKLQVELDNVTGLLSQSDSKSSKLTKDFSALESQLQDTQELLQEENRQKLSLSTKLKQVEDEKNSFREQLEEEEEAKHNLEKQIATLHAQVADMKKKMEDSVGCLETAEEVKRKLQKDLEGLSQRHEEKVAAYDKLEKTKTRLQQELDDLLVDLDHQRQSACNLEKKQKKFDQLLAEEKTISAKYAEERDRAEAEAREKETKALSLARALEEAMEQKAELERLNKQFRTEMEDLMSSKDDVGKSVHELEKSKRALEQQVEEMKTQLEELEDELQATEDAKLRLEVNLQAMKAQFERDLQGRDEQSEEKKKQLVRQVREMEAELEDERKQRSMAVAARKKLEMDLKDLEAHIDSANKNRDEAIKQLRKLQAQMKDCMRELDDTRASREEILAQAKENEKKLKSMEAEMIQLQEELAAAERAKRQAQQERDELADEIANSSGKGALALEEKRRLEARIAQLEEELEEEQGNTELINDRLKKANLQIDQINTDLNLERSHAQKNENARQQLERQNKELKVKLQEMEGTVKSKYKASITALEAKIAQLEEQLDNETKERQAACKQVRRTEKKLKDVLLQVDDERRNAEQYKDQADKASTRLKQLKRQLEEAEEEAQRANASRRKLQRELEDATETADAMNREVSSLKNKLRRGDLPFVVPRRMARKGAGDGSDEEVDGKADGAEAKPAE

For the experiment, the target named is Flag-tagged Chromobox protein homolog 7 (CBX7), adenoviral overexpression in U251 cells (human) (UniProt O95931). Description: affinity purification with mass spectrometry; U251 cells transiently transfected with Flag-tagged CBX7 adenoviral vector; co-IP with anti-Flag antibody or IgG as control, then LC-MS/MS.

Results are given in words; binding and its absence hold for the method and conditions named. In cells and extracts the contact can be indirect. Here binding means that the protein was enriched with, or labelled near, the bait; the list need not be complete.

“RING1A (RNF1), endogenous (from UniProt Q06587 1-406)”: the binding entry was “binds”.

Consider “myosin heavy chain 9 (MYH9), endogenous (from UniProt P35579 1-1960)”, for which the binding result is given as “binds”.
